Numbering of substitutions follows the chain as printed. Names and notes keep the numbering of the source. Values joined by “and” are separate entries in the source; they are usually repeats but may differ in a detail not shown here. Equal entries are not always repeated.
B1: SNAP-mGluR3-C127A (protein)
chain: LGDHNFMRREIKIEGDLVLGGLFPINEKGTGTEECGRINEDRGIQRLEAMLFAIDEINKDNYLLPGVKLGVHILDTCSRDTYALEQSLEFVRASLTKVDEAEYMAPDGSYAIQENIPLLIAGVIGGSYSSVSIQVANLLRLFQIPQISYASTSAKLSDKSRYDYFARTVPPDFYQAKAMAEILRFFNWTYVSTVASEGDYGETGIEAFEQEARLRNICIATAEKVGRSNIRKSYDSVIRELLQKPNARVVVLFMRSDDSRELIAAANRVNASFTWVASDGWGAQESIVKGSEHVAYGAITLELASHPVRQFDRYFQSLNPYNNHRNPWFRDFWEQKFQCSLQNKRNHRQVCDKHLAIDSSNYEQESKIMFVVNAVYAMAHALHKMQRTLCPNTTKLCDAMKILDGKKLYKEYLLKINFTAPFNPNKGADSIVKFDTFGDGMGRYNVFNLQQTGGKYSYLKVGHWAETLSLDVDSIHWSRNSVPTSQCSDPCAPNEMKNMQPGDVCCWICIPCEPYEYLVDEFTCMDCGPGQWPTADLSGCYNLPEDYIKWEDAWAIGPVTIACLGFLCTCIVITVFIKHNNTPLVKASGRELCYILLFGVSLSYCMTFFFIAKPSPVICALRRLGLGTSFAICYSALLTKTNCIARIFDGVKNGAQRPKFISPSSQVFICLGLILVQIVMVSVWLILETPGTRRYTLPEKRETVILKCNVKDSSMLISLTYDVVLVILCTVYAFKTRKCPENFNEAKFIGFTMYTTCIIWLAFLPIFYVTSSDYRVQTTTMCISVSLSGFVVLGCLFAPKVHIVLFQPQKNVVTHRLHLNRFSVSGTATTYSQSSASTYVPTVCNGREVLDSTTSSL
modifications: SNAP tag labelled with BG-LD555 (BG-LD655 in two-colour SiMPull); left off: HA, N-terminal, kept | SNAP, N-terminal, kept
B2: SNAP-mGluR3-C127A-I788A (protein)
chain: B1 chain with I766A
modifications: SNAP tag labelled with BG-LD555; left off: HA, N-terminal, kept | SNAP, N-terminal, kept
B3: SNAP-mGluR3-C127A-3xTM4 (protein)
chain: B1 chain with S664A, F668A, G672A
modifications: SNAP tag labelled with BG-LD555; left off: HA, N-terminal, kept | SNAP, N-terminal, kept
B4: SNAP-mGluR2-C121A (protein)
chain: EGPAKKVLTLEGDLVLGGLFPVHQKGGPAEECGPVNEHRGIQRLEAMLFALDRINRDPHLLPGVRLGAHILDSCSKDTHALEQALDFVRASLSRGADGSRHIAPDGSYATHSDAPTAVTGVIGGSYSDVSIQVANLLRLFQIPQISYASTSAKLSDKSRYDYFARTVPPDFFQAKAMAEILRFFNWTYVSTVASEGDYGETGIEAFELEARARNICVATSEKVGRAMSRAAFEGVVRALLQKPSARVAVLFTRSEDARELLAATQRLNASFTWVASDGWGALESVVAGSERAAEGAITIELASYPISDFASYFQSLDPWNNSRNPWFREFWEERFHCSFRQRDCAAHSLRAVPFEQESKIMFVVNAVYAMAHALHNMHRALCPNTTHLCDAMRPVNGRRLYKDFVLNVKFDAPFRPADTDDEVRFDRFGDGIGRYNIFTYLRAGSGRYRYQKVGYWAEGLTLDTSFIPWASPSAGPLPASRCSEPCLQNEVKSVQPGEVCCWLCIPCQPYEYRLDEFTCADCGLGYWPNASLTGCFELPQEYIRWGDAWAVGPVTIACLGALATLFVLGVFVRHNATPVVKASGRELCYILLGGVFLCYCMTFVFIAKPSTAVCTLRRLGLGTAFSVCYSALLTKTNRIARIFGGAREGAQRPRFISPASQVAICLALISGQLLIVAAWLVVEAPGTGKETAPERREVVTLRCNHRDASMLGSLAYNVLLIALCTLYAFKTRKCPENFNEAKFIGFTMYTTCIIWLAFLPIFYVTSSDYRVQTTTMCVSVSLSGSVVLGCLFAPKLHIILFQPQKNVVSHRAPTSRFGSAAPRASANLGQGSGSQFVPTVCNGREVVDSTTSSL
modifications: SNAP tag labelled with BG-LD555 (BG-LD655 in two-colour SiMPull); left off: HA, N-terminal, kept | SNAP, N-terminal, kept
B5: SNAP-mGluR2-C121A-I779A (protein)
chain: B4 chain with I761A
modifications: SNAP tag labelled with BG-LD555; left off: HA, N-terminal, kept | SNAP, N-terminal, kept
B6: SNAP-mGluR2-C121A-3xTM4 (protein)
chain: B4 chain with A659S, A663F, A667G
modifications: SNAP tag labelled with BG-LD555; left off: HA, N-terminal, kept | SNAP, N-terminal, kept
B7: SNAP-mGluR2-C121A-3xTM4-I779A (protein)
chain: B4 chain with A659S, A663F, A667G, I761A
modifications: SNAP tag labelled with BG-LD555; left off: HA, N-terminal, kept | SNAP, N-terminal, kept

These molecules were tested on SNAP-tagged mGluR2 and mGluR3 constructs (assay: SiMPull subunit counting, percent dimerization of constructs without ligand). Conditions: construct without ligand; single replicates per experiment day.
Set-up: species or system rat

| Molecule | % Dimerization |
| --- | --- |
| B1 | 59.17% and 57.42% and 54.46% and 49.38% and 38.92% and 54.20% and 39.61% and 50.12% |
| B2 | 31.77% and 34.44% and 36.00% and 38.24% and 44.05% and 29.32% |
| B3 | 79.20% and 65.86% and 67.99% and 75.93% and 87.10% and 71.74% |
| B4 | 84.68% and 85.56% and 89.29% and 98.62% and 88.80% and 100.98% and 90.75% |
| B5 | 69.19% and 59.94% and 71.25% and 56.67% and 67.46% and 67.92% |
| B6 | 66.64% and 80.00% and 56.67% and 67.94% and 64.29% and 76.71% and 70.79% |
| B7 | 39.40% and 50.61% and 41.61% and 48.46% and 50.00% and 51.94% |

From paper PMC8102066 (eLife, 2021)
